PubChem BioAssay AID1159578 | Peter MacCallum Cancer Centre, 2015
This is a random part of about 18,000 deposited reagents. In the full data, about 1,030 (5.7%) were called active. 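Inactive calls also include pools with fewer than 3300 nuclei, whose migration was not assessed.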 The raw values are shown without normalisation. Reagent sequences are not shown.

Aim: 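Genome-wide hunt for genes controlling movement of lymphatic endothelial cells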 (primary screen)
System: human lymphatic endothelial cells
Reagents: siRNA pool against human genes, 40 nM
Duration: 48 h after transfection
Read-out: 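Cells stained with dye and imaged after a scratch; covered wound area and nuclei counted, duplicates averaged, migration set against mock wells and turned into a robust z-score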
Reading the numbers: migration robust z-score: higher = faster migration into the scratch; migration relative to mock: higher = more scratch area covered than mock; nuclei per well: higher = more cells in the well
Rule for the call: 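Pools averaging fewer than 3300 nuclei are never called; remaining pools count as changed when migration robust z lies outside -2 to 2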
Meaning of the calls: active = migration changed; inactive = no migration change, or too few cells

migration robust z-score	migration class with cell-count check	migration relative to mock	nuclei per well, duplicate mean	outcome	gene symbol
-3.68	migration z below -2; enough cells	-0.07	3550	active	PRR21
-0.72	migration z between -2 and 2; enough cells	0.7	5366	inactive	CLSTN3
0.24	migration z between -2 and 2; enough cells	0.94	7174	inactive	CENPB
1.8	migration z between -2 and 2; enough cells	1.35	6310	inactive	SUSD2
0.14	migration z between -2 and 2; enough cells	0.92	5048	inactive	CBLN1
-1.9	migration z between -2 and 2; enough cells	0.4	4124	inactive	SLURP1
0.75	migration z between -2 and 2; enough cells	1.07	4912	inactive	EXOC3L1
0.38	migration z between -2 and 2; enough cells	0.98	6406	inactive	UBL4B
-0.18	migration z between -2 and 2; enough cells	0.77	5836	inactive	NEU4
1.66	migration z between -2 and 2; enough cells	1.31	5781	inactive	RALY
0.02	migration z between -2 and 2; enough cells	0.89	7700	inactive	STRN
-0.44	migration z between -2 and 2; enough cells	0.77	5810	inactive	RPP38
1.19	migration z between -2 and 2; enough cells	1.19	5176	inactive	EMC8
-0.18	migration z between -2 and 2; enough cells	0.84	6303	inactive	MYO9A
0.33	migration z between -2 and 2; enough cells	0.97	5516	inactive	SECTM1
0.2	migration z between -2 and 2; enough cells	0.84	4265	inactive	FBP1
0.65	migration z between -2 and 2; enough cells	1.05	6513	inactive	ISX
-1.69	under 3300 nuclei; migration not judged	0.44	3256	inactive	WFDC8
0.21	migration z between -2 and 2; enough cells	0.94	5150	inactive	SERHL
0.05	migration z between -2 and 2; enough cells	0.82	5205	inactive	RNF114
0.14	migration z between -2 and 2; enough cells	0.92	5068	inactive	PPP1R13L
0.1	migration z between -2 and 2; enough cells	0.82	5769	inactive	FOXP3
1.38	migration z between -2 and 2; enough cells	1.07	6136	inactive	AFF3
0.66	migration z between -2 and 2; enough cells	1.06	6246	inactive	CRB1
0.38	migration z between -2 and 2; enough cells	0.98	6376	inactive	RAB41
-0.15	migration z between -2 and 2; enough cells	0.84	5730	inactive	IQCC
0.15	migration z between -2 and 2; enough cells	0.84	5389	inactive	ARL5A
-0.88	migration z between -2 and 2; enough cells	0.64	5021	inactive	MYH6
-0.83	migration z between -2 and 2; enough cells	0.64	5910	inactive	DPP6
-0.68	migration z between -2 and 2; enough cells	0.7	4884	inactive	SLC39A11
1.82	migration z between -2 and 2; enough cells	1.36	6280	inactive	SVEP1
-0.9	migration z between -2 and 2; enough cells	0.66	4479	inactive	SNX25
0.59	migration z between -2 and 2; enough cells	1.03	7359	inactive	ATL2
0.26	migration z between -2 and 2; enough cells	0.86	6318	inactive	LTA4H

A run of entries from the list above, for reference:
migration robust z-score	migration class with cell-count check	migration relative to mock	nuclei per well, duplicate mean	outcome	gene symbol
1.66	migration z between -2 and 2; enough cells	1.31	5781	inactive	RALY
0.02	migration z between -2 and 2; enough cells	0.89	7700	inactive	STRN
-0.44	migration z between -2 and 2; enough cells	0.77	5810	inactive	RPP38
1.19	migration z between -2 and 2; enough cells	1.19	5176	inactive	EMC8
-0.18	migration z between -2 and 2; enough cells	0.84	6303	inactive	MYO9A
0.33	migration z between -2 and 2; enough cells	0.97	5516	inactive	SECTM1
0.2	migration z between -2 and 2; enough cells	0.84	4265	inactive	FBP1
0.65	migration z between -2 and 2; enough cells	1.05	6513	inactive	ISX
-1.69	under 3300 nuclei; migration not judged	0.44	3256	inactive	WFDC8
0.21	migration z between -2 and 2; enough cells	0.94	5150	inactive	SERHL

Further reagents follow.
migration robust z-score	migration class with cell-count check	migration relative to mock	nuclei per well, duplicate mean	outcome	gene symbol
-0.19	migration z between -2 and 2; enough cells	0.84	7100	inactive	LINC00477
1.06	migration z between -2 and 2; enough cells	1.16	6459	inactive	SFTA2
0.26	migration z between -2 and 2; enough cells	0.96	6513	inactive	HCG9
0.16	migration z between -2 and 2; enough cells	0.84	5246	inactive	OMG
-2.59	migration z below -2; enough cells	0.3	6349	active	AOC3
-1.5	migration z between -2 and 2; enough cells	0.52	5723	inactive	DDAH1
-0.7	migration z between -2 and 2; enough cells	0.67	5780	inactive	PGLYRP1
1.32	migration z between -2 and 2; enough cells	1.23	5560	inactive	MTUS2
1.16	migration z between -2 and 2; enough cells	1.19	5942	inactive	NT5DC2
-0.46	migration z between -2 and 2; enough cells	0.76	5719	inactive	BRINP1
0.65	migration z between -2 and 2; enough cells	0.93	6458	inactive	NDST2
-1.97	migration z between -2 and 2; enough cells	0.43	4213	inactive	UBA52
-0.5	migration z between -2 and 2; enough cells	0.75	5510	inactive	ZNF721
1.71	migration z between -2 and 2; enough cells	1.33	4862	inactive	PTTG1IP
0.09	migration z between -2 and 2; enough cells	0.9	6366	inactive	SLITRK6
-0.06	migration z between -2 and 2; enough cells	0.87	5839	inactive	H2AZ2
0.36	migration z between -2 and 2; enough cells	0.88	3913	inactive	ASPH
0.46	migration z between -2 and 2; enough cells	0.9	6316	inactive	CKMT1B
-2.16	migration z below -2; enough cells	0.39	5156	active	ONECUT2
0.68	migration z between -2 and 2; enough cells	0.94	6228	inactive	FOXL2
-0.99	migration z between -2 and 2; enough cells	0.62	4960	inactive	CXCL16
-0.55	migration z between -2 and 2; enough cells	0.7	4102	inactive	KREMEN2
-0.26	migration z between -2 and 2; enough cells	0.82	6345	inactive	DDIAS
